Results are given in words; binding and its absence hold for the method and conditions named. Some results given as binding are weak or reduced against the parent protein; the word gives no strength.
Biological target: FLAG-tagged hAng-2 (human) (UniProt O15123)
Experiment: sandwich (complex) ELISA: coated Tie2-Fc, FLAG-Ang2 0.25 µg/ml and 10D6 2 µg/ml added, bound 10D6 detected with anti-mouse IgG-HRP (OD450)

By UniProt entry, the sequences of proteins in these tests, tags left out. Where a name states a change or a piece, a line headed by the entry shows the natural chain unless it says otherwise.
UniProt O15123: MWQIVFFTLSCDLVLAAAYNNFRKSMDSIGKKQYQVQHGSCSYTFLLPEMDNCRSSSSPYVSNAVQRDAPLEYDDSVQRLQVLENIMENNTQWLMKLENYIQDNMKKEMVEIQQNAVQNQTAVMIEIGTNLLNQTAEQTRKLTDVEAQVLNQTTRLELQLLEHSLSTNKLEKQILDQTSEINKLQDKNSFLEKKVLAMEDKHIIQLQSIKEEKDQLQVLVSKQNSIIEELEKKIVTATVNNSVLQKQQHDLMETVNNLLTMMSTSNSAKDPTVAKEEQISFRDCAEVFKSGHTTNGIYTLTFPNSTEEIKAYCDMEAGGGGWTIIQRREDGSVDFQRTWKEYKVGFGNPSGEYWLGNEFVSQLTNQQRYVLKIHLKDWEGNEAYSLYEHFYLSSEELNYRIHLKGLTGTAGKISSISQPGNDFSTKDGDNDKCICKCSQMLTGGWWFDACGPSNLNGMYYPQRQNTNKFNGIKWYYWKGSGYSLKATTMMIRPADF

binding: binds
B1: SAIT-ANG2-AB-m10D6 (antibody, V domains shown)
VH: DVQLQESGPGLVKPSQSLSLTCTVTGYSITSDYAWNWIRQFPGNKLEWMGYINYSGNTDYNPSLKSRSSITRDTSKNQFFLQLNSVTTGDTATYYCARGNFEGAMDYWGQGTSVTVSS
VL: SIVMTQTPKFLLVSAGDRVTITCKASQSVSNDVAWYQQKPGQSPKLLIYYASNRYPGVPDRFTGSGYGTDFTFTISTVQAEDLAVYFCQQDYSSPWTFGGGTKLEIK
